From patent US20150148256A1, “BIOLUMINESCENCE IMAGING-BASED SCREENING ASSAY AND INHIBITORS OF ABCG2” (THE JOHNS HOPKINS UNIVERSITY, priority 2008, published 2015)

Target: T1, ABCG2 (Homo sapiens, UniProt Q9UNQ0)
T1 sequence (Q9UNQ0 1-655): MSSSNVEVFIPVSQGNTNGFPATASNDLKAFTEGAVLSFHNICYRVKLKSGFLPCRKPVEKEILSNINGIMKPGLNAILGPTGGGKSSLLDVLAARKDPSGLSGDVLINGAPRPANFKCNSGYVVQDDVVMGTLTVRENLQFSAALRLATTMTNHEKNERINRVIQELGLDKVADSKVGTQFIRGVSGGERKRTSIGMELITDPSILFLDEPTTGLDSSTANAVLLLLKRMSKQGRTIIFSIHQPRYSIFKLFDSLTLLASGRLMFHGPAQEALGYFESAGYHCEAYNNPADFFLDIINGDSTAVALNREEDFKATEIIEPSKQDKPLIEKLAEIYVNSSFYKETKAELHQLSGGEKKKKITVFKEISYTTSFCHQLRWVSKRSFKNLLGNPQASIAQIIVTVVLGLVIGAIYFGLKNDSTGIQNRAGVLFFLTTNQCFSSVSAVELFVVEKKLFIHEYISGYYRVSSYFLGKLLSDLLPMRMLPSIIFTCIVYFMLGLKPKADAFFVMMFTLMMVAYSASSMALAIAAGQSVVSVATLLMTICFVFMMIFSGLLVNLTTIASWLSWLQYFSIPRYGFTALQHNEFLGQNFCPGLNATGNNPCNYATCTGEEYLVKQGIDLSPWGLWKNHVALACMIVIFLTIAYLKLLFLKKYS
Conditions: 40 min, 17 μM
Experimental: HEK293/ABCG2/fLuc cells were plated into 96-well plates at a density of 4×10^4 cells/100 μL per well and were allowed to attach overnight. The following day, 10 μL of each compound or the control solvent was transferred from a compound library in a 96-well, high-throughput format into the wells using a multichannel pipette. […] Images were taken every 5 minutes for ˜1 h. Light output from each well was quantified at the 40 min time point after initiation of imaging, and the signal-to-background (S/B) ratio of the light output from each compound divided by that from the control well was calculated. This S/B ratio serves as an indicator of the potency of ABCG2 inhibition, the mechanism by which BLI signal is enhanced.
Images were taken every 5 min for ˜1 h, and light output from each well at the 40 min time point was chosen for quantification. The SB ratio of the light output from each compound divided by that from the control well was calculated. This ratio was used as an indicator of the potency of ABCG2 inhibition, the mechanism by which BLI signal is enhanced.
The BLI signal-enhancing effect of selected ABCG2 inhibitors was evaluated within the range of 0.001 μM-100 μM, with HEK293/ABCG2/fLuc cells and 50 μg/mL D-luciferin. The data obtained at 40 min after imaging commencement were chosen arbitrarily to be plotted (FIG. 3).

Fold (BLI enhancement, S/B ratio over control): 2.4 fold
Structure (SMILES): CCCNCC(O)COc1ccccc1C(=O)CCc1ccccc1 (stereo not shown) [propafenone]
